Experimental data: PubChem BioAssay AID1224826 (NIAID, 2016)

Purpose: 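Genes that change LPS-induced Tnf promoter activity in mouse macrophages when knocked down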 (primary screen)
Cell system: RAW264.7 G9 macrophages from mouse bearing reporters for p65 (GFP) and the Tnf promoter (mCherry)
Knock-down reagent: siRNA pool against mouse genes, 100 nM
Timing: 16 h of LPS stimulation, after 2 days of siRNA transfection
Treatment: bacterial lipopolysaccharide (Salmonella minnesota R595), 10 ng/ml
Measurement: 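Nuclear mCherry signal of the Tnf promoter reporter measured by imaging after background removal, scaled to each plate median and turned into robust z-scores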
Reading the numbers: Tnf reporter robust z-score: higher = stronger Tnf promoter reporter signal after LPS
Call rule: 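Called active when robust z-score is at most -1.3, matching the median of the Tlr4 knock-down control, or over 3; control wells and wells with under 50 cells never active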
Meaning of the calls: active = Tnf reporter clearly lowered or raised; inactive = no clear change in Tnf reporter
Shown is a random part of about 17,000 reagents. Of all reagents, about 1,110 (6.6%) got an active call. 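Active means lowered or raised reporter signal; replicate intensities are raw and not normalised per plate.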 Entries without a mark were called inactive. Further read-outs or replicates are left out here.

Svil (supervillin) scored Tnf reporter robust z-score -0.97; fewer than 50 cells in well enough cells in well. After knock-down of Fpr2 (formyl peptide receptor 2) the results were Tnf reporter robust z-score 0.13; fewer than 50 cells in well enough cells in well. Prl2c4 (prolactin family 2, subfamily c, member 4) gave Tnf reporter robust z-score -0.2; fewer than 50 cells in well enough cells in well. Against Gucy2f (guanylate cyclase 2f), the values are Tnf reporter robust z-score -1.04; fewer than 50 cells in well enough cells in well. For Gas5 (growth arrest specific 5), the values are Tnf reporter robust z-score -0.96; fewer than 50 cells in well enough cells in well. With knock-down of Doc2b (double C2, beta), the record shows Tnf reporter robust z-score -0.06; fewer than 50 cells in well enough cells in well.

Knock-down of Slc16a8 resulted in: Tnf reporter robust z-score 3.71 (active); fewer than 50 cells in well enough cells in well. Depletion of Chchd4 (coiled-coil-helix-coiled-coil-helix domain containing 4) resulted in: Tnf reporter robust z-score -0.42; fewer than 50 cells in well enough cells in well. After knock-down of Cnih2 (cornichon family AMPA receptor auxiliary protein 2), the screen gave Tnf reporter robust z-score 0.08; fewer than 50 cells in well enough cells in well. Cd300e (CD300E molecule) scored Tnf reporter robust z-score 0.49; fewer than 50 cells in well enough cells in well. Depletion of Actr3 (ARP3 actin-related protein 3) came out at: Tnf reporter robust z-score 0.31; fewer than 50 cells in well enough cells in well. Depletion of Cd3d (CD3 antigen, delta polypeptide) resulted in: Tnf reporter robust z-score 1.9; fewer than 50 cells in well enough cells in well.

Ackr3 (atypical chemokine receptor 3) gave Tnf reporter robust z-score 0.75; fewer than 50 cells in well enough cells in well. Or9a7 (olfactory receptor family 9 subfamily A member 7) gave Tnf reporter robust z-score 3.42 (active); fewer than 50 cells in well enough cells in well. After knock-down of Efcc1 (EF hand and coiled-coil domain containing 1) the results were Tnf reporter robust z-score -0.96; fewer than 50 cells in well enough cells in well. Zfp455 (zinc finger protein 455) gave Tnf reporter robust z-score 2.1; fewer than 50 cells in well enough cells in well. For Ndufb5 (NADH:ubiquinone oxidoreductase subunit B5) the deposit lists Tnf reporter robust z-score 0.1; fewer than 50 cells in well enough cells in well.

Taken from above.
Under “Tnf reporter robust z-score”, Gas5 (growth arrest specific 5) has -0.96
Value for Gucy2f (guanylate cyclase 2f) under “Tnf reporter robust z-score”: -1.04

More entries:
Against Slc1a5, the entry reads Tnf reporter robust z-score 0.19; fewer than 50 cells in well enough cells in well. After knock-down of Hcn3 (hyperpolarization-activated, cyclic nucleotide-gated K+ 3), the record shows Tnf reporter robust z-score 0.25; fewer than 50 cells in well enough cells in well. For Lratd1 (LRAT domain containing 1) the deposit lists Tnf reporter robust z-score 1.84; fewer than 50 cells in well enough cells in well. Col6a2 (collagen, type VI, alpha 2) gave Tnf reporter robust z-score 0.62; fewer than 50 cells in well enough cells in well. Cd300lf (CD300 molecule like family member F) scored Tnf reporter robust z-score 0.01; fewer than 50 cells in well enough cells in well. After knock-down of Zfa-ps (zinc finger protein, autosomal, pseudogene), the record shows Tnf reporter robust z-score 0.72; fewer than 50 cells in well enough cells in well.

Against Pbx1 (pre B cell leukemia homeobox 1), the entry reads Tnf reporter robust z-score 0.56; fewer than 50 cells in well enough cells in well. Ndufb3 (NADH:ubiquinone oxidoreductase subunit B3) scored Tnf reporter robust z-score -0.04; fewer than 50 cells in well enough cells in well. Ndufa7 (NADH:ubiquinone oxidoreductase subunit A7) gave Tnf reporter robust z-score -1.33 (active); fewer than 50 cells in well enough cells in well. With knock-down of Prl4a1 (prolactin family 4, subfamily a, member 1), the screen gave Tnf reporter robust z-score 1.64; fewer than 50 cells in well enough cells in well.
